Positions count from the first letter of the chain named. In names and notes the source's numbering stands. Results are given in words; binding and its absence hold for the method and conditions named. For some of these results: In cells and extracts the contact can be indirect. Some entries that bind do so weakly or less than the wild type. Sequences can lack the tags named with a protein.

This passage reports binding results from publication PMC4357442.

For assay [1], the target named is T1, Mms21-6HA (S. cerevisiae (budding yeast)) (UniProt P38632).
T1 sequence: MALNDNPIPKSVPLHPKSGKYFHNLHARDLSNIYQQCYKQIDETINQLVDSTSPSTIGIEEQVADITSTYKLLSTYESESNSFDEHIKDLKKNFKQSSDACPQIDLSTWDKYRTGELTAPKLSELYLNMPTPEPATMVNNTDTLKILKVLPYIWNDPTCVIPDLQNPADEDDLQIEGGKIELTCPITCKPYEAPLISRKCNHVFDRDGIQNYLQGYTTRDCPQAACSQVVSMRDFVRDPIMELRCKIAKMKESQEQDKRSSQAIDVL
As to the kind of experiment: co-IP; anti-HA beads; Mms21-6HA immunoprecipitated from GALp-SMC5 cells expressing SMC5 or smc5-DLEL from a centromeric vector, shifted to glucose for 6 h.

Assay [2] has as its target T1, Mms21-6HA (S. cerevisiae (budding yeast)). As to the kind of experiment: co-IP; anti-HA immunoprecipitation from wild type and GALp-SMC6 smc6-1 cells expressing Smc5-9myc and Mms21-6HA, shifted to glucose for 12 h.
Assay [3] has as its target T2, Mms21-3HA (S. cerevisiae (budding yeast)) (UniProt P38632).
T2 sequence: T1 sequence
Put plainly: co-IP; Mms21-3HA immunoprecipitated from exponentially growing cells transformed with SMC5-expressing centromeric plasmids.

Assay [4] deals with T1, Mms21-6HA (S. cerevisiae (budding yeast)). As to the kind of experiment: co-IP; anti-HA immunoprecipitation from MMS21-6HA or NSE4-6HA yeast cells transformed with centromeric plasmids expressing SMC5-9myc alleles; western blot. Background: In western blotting, separated proteins are transferred to a membrane and probed.
Assay [5] concerns the target T3, Nse4-6HA (S. cerevisiae (budding yeast)) (UniProt P43124).
T3 sequence: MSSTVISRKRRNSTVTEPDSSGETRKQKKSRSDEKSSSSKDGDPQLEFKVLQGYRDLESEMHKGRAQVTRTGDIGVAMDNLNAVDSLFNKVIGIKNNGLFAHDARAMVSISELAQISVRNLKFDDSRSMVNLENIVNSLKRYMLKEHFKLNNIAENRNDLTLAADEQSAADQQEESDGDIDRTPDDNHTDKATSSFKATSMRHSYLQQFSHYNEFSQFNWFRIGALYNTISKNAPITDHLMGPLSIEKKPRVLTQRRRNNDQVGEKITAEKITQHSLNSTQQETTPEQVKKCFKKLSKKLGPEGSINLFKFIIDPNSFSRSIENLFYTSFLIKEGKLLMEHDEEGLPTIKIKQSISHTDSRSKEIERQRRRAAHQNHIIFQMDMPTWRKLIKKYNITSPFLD
Described as above.

The target of assay [6] is T4, 6his-HA-Nse2 (S. cerevisiae (budding yeast)) (UniProt P38632).
T4 sequence: T1 sequence
As to the kind of experiment: scanning force microscopy (particle volume); heterodimer co-expressed in E. coli, purified on Ni-NTA and Superdex 200; 30 ng/ul in 50 mM Tris-HCl pH 7.5, 100 mM NaCl, 2 mM MgCl2 with or without 1 mM ATP, on mica with 50 uM spermidine, imaged in air; both purified.

B1: Smc5-9myc (wild type) (protein, UniProt Q08204 1-1093)
chain: MTSLIDLGRYVERTHHGEDTEPRSKRVKIAKPDLSSFQPGSIIKIRLQDFVTYTLTEFNLSPSLNMIIGPNGSGKSTFVCAVCLGLAGKPEYIGRSKKVEDFIKNGQDVSKIEITLKNSPNVTDIEYIDARDETIKITRIITRSKRRSDYLINDYQVSESVVKTLVAQLNIQLDNLCQFLSQERVEEFARLKSVKLLVETIRSIDASLLDVLDELRELQGNEQSLQKDLDFKKAKIVHLRQESDKLRKSVESLRDFQNKKGEIELHSQLLPYVKVKDHKEKLNIYKEEYERAKANLRAILKDKKPFANTKKTLENQVEELTEKCSLKTDEFLKAKEKINEIFEKLNTIRDEVIKKKNQNEYYRGRTKKLQATIISTKEDFLRSQEILAQTHLPEKSVFEDIDIKRKEIINKEGEIRDLISEIDAKANAINHEMRSIQRQAESKTKSLTTTDKIGILNQDQDLKEVRDAVLMVREHPEMKDKILEPPIMTVSAINAQFAAYLAQCVDYNTSKALTVVDSDSYKLFANPILDKFKVNLRELSSADTTPPVPAETVRDLGFEGYLSDFITGDKRVMKMLCQTSKIHTIPVSRRELTPAQIKKLITPRPNGKILFKRIIHGNRLVDIKQSAYGSKQVFPTDVSIKQTNFYQGSIMSNEQKIRIENEIINLKNEYNDRKSTLDALSNQKSGYRHELSELASKNDDINREAHQLNEIRKKYTMRKSTIETLREKLDQLKREARKDVSQKIKDIDDQIQQLLLKQRHLLSKMASSMKSLKNCQKELISTQILQFEAQNMDVSMNDVIGFFNEREADLKSQYEDKKKFVKEMRDTPEFQSWMREIRSYDQDTKEKLNKVAEKYEEEGNFNLSFVQDVLDKLESEIAMVNHDESAVTILDQVTAELRELEHTVPQQSKDLETIKAKLKEDHAVLEPKLDDIVSKISARFARLFNNVGSAGAVRLEKPKDYAEWKIEIMVKFRDNAPLKKLDSHTQSGGERAVSTVLYMIALQEFTSAPFRVVDEINQGMDSRNERIVHKAMVENACAENTSQYFLITPKLLTGLHYHEKMRIHCVMAGSWIPNPSEDPKMIHFGETSNYSFD
As to B1, the binding entry in assay [1], in assay [2], in assay [3], in assay [4] and in assay [5] was “binds” throughout.

B2: 6his-T7-Smc5(K75I) (protein, UniProt Q08204 1-1093)
chain: B1 chain with K75I
As for B2, the binding entry in assay [6] is recorded as “binds”.

B3: 6his-T7-Smc5 (protein, UniProt Q08204 1-1093)
chain: B1 chain
As to B3, the binding entry in assay [6] is “binds”.
